These are yes or no findings as the source states them, for the method shown. In cells and extracts the contact can be indirect. Some results given as binding are weak or reduced against the parent protein; the word gives no strength. For part of these data: Tags and fused reporters may be left off the sequences shown.
Columns and labels:
HA-tagged ILKAP = biological target: T1, HA-tagged ILKAP (UniProt Q9H0C8); assay: co-IP; HEK293 cells co-transfected with Myc-MAEL and HA-ILKAP, lysates (800 ug) at 24 h precipitated with anti-HA antibody or control IgG, blot with anti-Myc and anti-HA
T1 sequence: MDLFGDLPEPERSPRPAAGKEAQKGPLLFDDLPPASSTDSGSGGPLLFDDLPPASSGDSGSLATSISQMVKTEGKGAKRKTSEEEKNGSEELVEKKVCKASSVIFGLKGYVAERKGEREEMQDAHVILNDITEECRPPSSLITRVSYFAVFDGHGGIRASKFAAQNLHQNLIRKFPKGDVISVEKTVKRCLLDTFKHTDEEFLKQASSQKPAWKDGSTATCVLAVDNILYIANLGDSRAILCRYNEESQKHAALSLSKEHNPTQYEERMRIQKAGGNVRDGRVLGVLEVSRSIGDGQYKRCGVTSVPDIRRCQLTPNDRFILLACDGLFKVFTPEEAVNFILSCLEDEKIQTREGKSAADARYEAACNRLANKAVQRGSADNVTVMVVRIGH

[1] = biological target: T2, endogenous ILKAP protein (human (endogenous in AGS)) (UniProt Q9H0C8); assay: co-IP; endogenous proteins, AGS cell lysates (800 ug) precipitated with anti-ILKAP antibody or control IgG, blot with anti-MAEL and anti-ILKAP
T2 sequence: T1 sequence

[2] = biological target: T3, Myc-tagged MAEL with the MAEL domain (aa 130-326) deleted (UniProt Q96JY0); assay: co-IP; HEK293 cells co-transfected with HA-ILKAP and Myc-tagged full length or deletion mutants of MAEL, lysates (800 ug) precipitated with anti-Myc antibody, blot with anti-HA and anti-Myc
T3 sequence: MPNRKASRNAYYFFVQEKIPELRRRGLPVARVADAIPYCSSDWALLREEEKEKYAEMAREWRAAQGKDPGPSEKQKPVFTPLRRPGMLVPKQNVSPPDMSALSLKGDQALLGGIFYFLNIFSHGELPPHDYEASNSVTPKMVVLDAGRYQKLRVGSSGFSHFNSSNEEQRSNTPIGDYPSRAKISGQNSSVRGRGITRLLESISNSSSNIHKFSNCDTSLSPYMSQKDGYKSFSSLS

B1: Myc-tagged MAEL (full length) (protein, UniProt Q96JY0 1-434)
chain: MPNRKASRNAYYFFVQEKIPELRRRGLPVARVADAIPYCSSDWALLREEEKEKYAEMAREWRAAQGKDPGPSEKQKPVFTPLRRPGMLVPKQNVSPPDMSALSLKGDQALLGGIFYFLNIFSHGELPPHCEQRFLPCEIGCVKYSLQEGIMADFHSFINPGEIPRGFRFHCQAASDSSHKIPISNFERGHNQATVLQNLYRFIHPNPGNWPPIYCKSDDRTRVNWCLKHMAKASEIRQDLQLLTVEDLVVGIYQQKFLKEPSKTWIRSLLDVAMWDYSSNTRCKWHEENDILFCALAVCKKIAYCISNSLATLFGIQLTEAHVPLQDYEASNSVTPKMVVLDAGRYQKLRVGSSGFSHFNSSNEEQRSNTPIGDYPSRAKISGQNSSVRGRGITRLLESISNSSSNIHKFSNCDTSLSPYMSQKDGYKSFSSLS
For B1, the binding (HA-tagged ILKAP) was “binds”.

B2: endogenous MAEL protein (protein, UniProt Q96JY0 1-434)
chain: B1 chain
With B2 the binding [1] was “binds”.

B3: HA-tagged ILKAP (enzyme, UniProt Q9H0C8 1-392)
chain: T1 sequence
B3 was tested, and the binding [2] was “no binding”.

From publication PMC5768331
